{"source": "the supplement of paper PMC12889115", "system": "Salmonella enterica serovar Typhimurium SL1344", "experiment": "bacterial growth OD600 after 18 h with compound and polymyxin B; higher = more bacterial growth (less inhibition)", "conditions": "50 µM, Mueller-Hinton broth", "note": "The list shows a part of the results. Values are raw readings; no control value is given beside them.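 In the initial screen, polymyxin B was used at a concentration that permeabilizes Salmonella's outer membrane but not its inner membrane. Maximum growth was set by DMSO wells with or without polymyxin B. Since plates varied, data were ranked per plate, and compounds giving the lowest OD600 advanced as hits.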", "data": [{"smiles": "CCNC(=O)c1cn(CC(C)C)cc(C(=O)NCc2cccc(C)c2)c1=O", "values": [{"measurement": "bacterial growth OD600", "setting": "polymyxin B 0.75 µg/mL", "result": 0.755}]}, {"smiles": "CCOc1ccc(CN2CCN(Cc3cnn(CC)c3)CC2CCO)cc1", "note": "(stereo unspecified)", "values": [{"measurement": "bacterial growth OD600", "setting": "polymyxin B 1 µg/mL", "result": 0.959}]}, {"smiles": "CN(C)C(=O)CCC(=O)N1CCCC(CCc2cccc(F)c2)C1", "note": "(stereo unspecified)", "values": [{"measurement": "bacterial growth OD600", "setting": "polymyxin B 0.75 µg/mL", "result": 0.92}]}, {"smiles": "CCS(=O)(=O)c1ncc(CN(C)Cc2ccccc2OC)n1CCc1ccccc1", "values": [{"measurement": "bacterial growth OD600", "setting": "polymyxin B 1 µg/mL", "result": 0.799}]}, {"smiles": "COc1cccc(CCc2nnc(CCC(=O)N(C)Cc3ccc(F)cc3)o2)c1", "values": [{"measurement": "bacterial growth OD600", "setting": "polymyxin B 1 µg/mL", "result": 0.734}]}, {"smiles": "CN(Cc1nc(-c2ccc(C(F)(F)F)cc2)no1)CC1(N2CCOCC2)CCCCC1", "values": [{"measurement": "bacterial growth OD600", "setting": "polymyxin B 1 µg/mL", "result": 0.83}]}, {"smiles": "CCCN1CCC(NC(C)c2cnc(N3CCCCCCC3)nc2C)CC1", "note": "(stereo unspecified)", "values": [{"measurement": "bacterial growth OD600", "setting": "polymyxin B 0.75 µg/mL", "result": 0.763}]}, {"smiles": "c1cc(CN2CCc3onc(-c4ccc5c(c4)OCO5)c3C2)co1", "values": [{"measurement": "bacterial growth OD600", "setting": "polymyxin B 0.75 µg/mL", "result": 0.779}]}, {"smiles": "Cc1ccc(OC2CCN(Cc3ccncc3)CC2)c(C(=O)NCc2ccco2)c1", "values": [{"measurement": "bacterial growth OD600", "setting": "polymyxin B 0.75 µg/mL", "result": 0.92}]}, {"smiles": "CCn1cc(CN2CCC(Oc3ccc(C(=O)NCCOC)cc3Cl)CC2)c(C)n1", "values": [{"measurement": "bacterial growth OD600", "setting": "polymyxin B 1 µg/mL", "result": 0.987}]}, {"smiles": "CCN(Cc1nccn1C)C(=O)c1ccc(N2CCN3CCCC3C2)nc1", "note": "(stereo unspecified)", "values": [{"measurement": "bacterial growth OD600", "setting": "polymyxin B 1 µg/mL", "result": 0.989}]}, {"smiles": "O=C(c1cc2ccccc2s1)N1CCCC(Nc2ccc3c(c2)OCCO3)C1", "note": "(stereo unspecified)", "values": [{"measurement": "bacterial growth OD600", "setting": "polymyxin B 1 µg/mL", "result": 0.012}]}, {"smiles": "COc1ccc(C(=O)N2CCCCC2C(=O)Nc2cccc(-c3nnc(C)s3)c2)cc1", "note": "(stereo unspecified)", "values": [{"measurement": "bacterial growth OD600", "setting": "polymyxin B 1 µg/mL", "result": 0.974}]}, {"smiles": "COc1ccc(F)c(CN2CCCC3(CCN(C(C)=O)C3)C2=O)c1", "note": "(stereo unspecified)", "values": [{"measurement": "bacterial growth OD600", "setting": "polymyxin B 1 µg/mL", "result": 0.908}]}, {"smiles": "COc1cccc(NC(=O)CCC2CCN(S(=O)(=O)c3c(C)noc3C)CC2)c1", "values": [{"measurement": "bacterial growth OD600", "setting": "polymyxin B 1 µg/mL", "result": 0.825}]}, {"smiles": "O=C(c1cccnc1)N1CCC2(CCCN(Cc3cccc(F)c3F)C2=O)C1", "note": "(stereo unspecified)", "values": [{"measurement": "bacterial growth OD600", "setting": "polymyxin B 1 µg/mL", "result": 0.791}]}, {"smiles": "O=C1CCCN1CCC(=O)N1CCCC(CCc2ccc(F)cc2F)C1", "note": "(stereo unspecified)", "values": [{"measurement": "bacterial growth OD600", "setting": "polymyxin B 0.75 µg/mL", "result": 0.704}]}, {"smiles": "COC(=O)CC(NC1CCN(c2ccc(C(=O)NCc3ccccc3F)cc2)CC1)C(=O)OC", "note": "(stereo unspecified)", "values": [{"measurement": "bacterial growth OD600", "setting": "polymyxin B 0.75 µg/mL", "result": 0.964}]}, {"smiles": "O=C(Cn1nnnc1CN1CCOCC1)N1CCCN(Cc2ccccc2F)CC1", "values": [{"measurement": "bacterial growth OD600", "setting": "polymyxin B 1 µg/mL", "result": 0.933}]}, {"smiles": "COC(=O)CCC(=O)NC1CCCN(c2nc3ccccc3s2)C1", "note": "(stereo unspecified)", "values": [{"measurement": "bacterial growth OD600", "setting": "polymyxin B 0.75 µg/mL", "result": 0.805}]}, {"smiles": "CCOC(=O)C1(Cc2cccc(Cl)c2)CCCN(C(=O)CSc2ccncc2)C1", "note": "(stereo unspecified)", "values": [{"measurement": "bacterial growth OD600", "setting": "polymyxin B 1 µg/mL", "result": 0.014}]}, {"smiles": "Cc1ncsc1CCCNC(=O)CCN1Cc2ccccc2OC(c2ccccc2F)C1", "note": "(stereo unspecified)", "values": [{"measurement": "bacterial growth OD600", "setting": "polymyxin B 0.75 µg/mL", "result": 0.015}]}, {"smiles": "CN(CCn1ccc2ccccc21)C(=O)c1coc(COc2ccccc2)n1", "values": [{"measurement": "bacterial growth OD600", "setting": "polymyxin B 0.75 µg/mL", "result": 0.005}]}, {"smiles": "COc1ccc(OC2CCN(C(=O)C3CC3)CC2)c(C(=O)NCCc2cscn2)c1", "values": [{"measurement": "bacterial growth OD600", "setting": "polymyxin B 1 µg/mL", "result": 0.612}]}, {"smiles": "Cc1ccccc1C1(CC(=O)N2CCN(C3CCCC3)CC2)CC(=O)N(Cc2ccncc2)C1=O", "note": "(stereo unspecified)", "values": [{"measurement": "bacterial growth OD600", "setting": "polymyxin B 0.75 µg/mL", "result": 0.712}]}, {"smiles": "COc1ccc(C(=O)N2CCCC2)c(OC2CCN(Cc3ccc(F)cc3)CC2)c1", "values": [{"measurement": "bacterial growth OD600", "setting": "polymyxin B 0.75 µg/mL", "result": 0.692}]}, {"smiles": "CCOC(=O)C1(Cc2cccc(Cl)c2)CCCN(C(=O)NC(C)C)C1", "note": "(stereo unspecified)", "values": [{"measurement": "bacterial growth OD600", "setting": "polymyxin B 1 µg/mL", "result": 0.778}]}, {"smiles": "Cc1n[nH]c(C)c1S(=O)(=O)N1CCC(C2CCN(CC(C)C)CC2)C1", "note": "(stereo unspecified)", "values": [{"measurement": "bacterial growth OD600", "setting": "polymyxin B 0.75 µg/mL", "result": 0.897}]}, {"smiles": "Cc1cnc(CNc2ccc(-c3nc(C(C)C)no3)cn2)cn1", "values": [{"measurement": "bacterial growth OD600", "setting": "polymyxin B 1 µg/mL", "result": 0.982}]}, {"smiles": "CN(C(=O)CCN1Cc2ccccc2C1=O)C1CCCN(CCc2ccccc2)C1", "note": "(stereo unspecified)", "values": [{"measurement": "bacterial growth OD600", "setting": "polymyxin B 1 µg/mL", "result": 0.967}]}, {"smiles": "O=C(c1cccc(Cl)c1)N1CCC2(CCCN(CC3CC3)C2=O)C1", "note": "(stereo unspecified)", "values": [{"measurement": "bacterial growth OD600", "setting": "polymyxin B 1 µg/mL", "result": 0.923}]}]}
